Source: patent US20250032477A1 (VINCERX PHARMA GMBH, priority 2021, published 2025)

Experiment: general procedure: solution-phase peptide synthesis; HATU/DIEA
Details: TFA salt

Row | Substance | crude purity (method not given) (late stage modification step) | step yield (late stage modification step) | final purity (method not given) (coupling step) | step yield (coupling step)
1 | (1S,9S)-1-Amino-9-ethyl-5-fluoro-4-methyl-10,13-dioxo-2,3,9,10,13,15-hexahydro-1H,12H-benzo[de]pyrano[3′,4′:6,7]indolizino[1,2-b]quinolin-9-yl N-{2-[{2-[(2-aminoethyl)(methyl)amino]ethyl}(methyl)amino]ethyl}-N-methylglycyl-L-asparaginyl-L-prolyl-L-valinate trifluoroacetate (1:3) | 72% purity | 67% yield | – | –
2 | (7S)-7-Ethyl-8,11-dioxo-7,8,11,13-tetrahydro-2H,10H-[1,3]dioxolo[4,5-g]pyrano[3′,4′:6,7] indolizino [1,2-b]quinolin-7-yl N-methyl-N-(2,2,8,11-tetramethyl-4-oxo-3-oxa-5,8,11-triazatridecan-13-yl) glycyl-L-asparaginyl-L-prolyl-L-valinate | – | – | 93% purity | 54% yield
3 | Trifluoroacetic acid (1S,9S)-1-{[(benzyloxy)carbonyl]amino}-9-ethyl-5-fluoro-4-methyl-10,13-dioxo-2,3,9,10,13,15-hexahydro-1H,12H-benzo[de]pyrano[3′,4′:6,7]indolizino[1,2-b]quinolin-9-yl N-{2-[{2-[(2-aminoethyl)(methyl)amino]ethyl}(methyl)amino]ethyl}-N-methylglycyl-L-asparag | 95% purity | 80% yield | – | –
4 | Trifluoroacetic acid-(7S)-7-ethyl-8,11-dioxo-7,8,11,13-tetrahydro-2H,10H-[1,3]dioxolo[4,5-g]pyrano[3′,4′:6,7]indolizino[1,2-b]quinolin-7-yl N-{2-[{2-[(2-aminoethyl)(methyl)amino]ethyl} (methyl) amino]ethyl}-N-methylglycyl-L-asparaginyl-L-prolyl-L-valinate (1/1) | 100% purity | 99% yield | – | –
